# Experimental data taken from PubChem BioAssay AID1688 (National Center for Advancing Translational Sciences (NCATS), 2009).
# Screen size: about 220,000 compounds; about 2,400 (1.1%) were called active. This list was built around the results that the source calls inconclusive (neither active nor inactive); the mix of calls is not that of the screen. Calls follow the shape of the dose curve; as a rule, active = well fitted inhibition curve with a large enough effect; inconclusive = small, poorly fitted or top-dose-only effect, or effect the other way; inactive = no such curve, though single readings can be large or run the other way. A potency beside an inconclusive call is a rough fit, not a confirmed value.
# Assay: qHTS Multiplex Assay to Identify Dual Action Probes in a Cell Model of Huntington: Aggregate Formation (GFP); also: nearly all actives have a fitted effect of over 60% in size
# Conditions: PC12 HttQ103-GFP aggregates, Acumen cytometry, 40 h; activity change, negative = inhibition: at 46.1 µM (top of the series) unless noted
# In short: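 Steps: seed 1500 PC12 HTTQ103-GFP cells/well; add tebufenozide, 100 nM final; add compound titration; add ATPLite reagent; quantify GFP aggregates by laser scanning cytometry.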
# % is scaled to controls: 0 for no effect and ±100 for the full control effect; potency is read from the fitted curve at half-maximal effect.
SMILES,Potency,"activity change, negative = inhibition"
C=C1C(=O)C=C[C@]2(C)C[C@@H]3OC(=O)[C@](C)(O)[C@H]3C[C@@H]12,"inconclusive: 5.62 µM [activator, single point]",
Cc1ccc(-n2[nH]c(C)c(/C=N/Nc3ccc([N+](=O)[O-])cc3[N+](=O)[O-])c2=O)cc1C,"inconclusive: 35.5 µM [inhibitor, single point]",
O=C(NC1CCCCC1)c1cc(C(=O)c2ccccc2Br)c[nH]1,"inconclusive: 6.31 µM [inhibitor, full curve]",
NS(=O)(=O)c1ccc(NC(CNS(=O)(=O)c2ccccc2)c2ccccc2)cc1 (centres undefined),inactive,
CCN1c2ccccc2NC2C1C(C(C)=O)C(=O)N2c1ccc(Cl)cc1 (centres undefined),"inconclusive: 35.5 µM [inhibitor, single point]",
Cc1ccc(CN2CCN(CCCc3ccccc3)CC2CCO)cc1 (centres undefined),inactive,
Cc1nc(C)n(CC(O)COc2ccc(C(=O)c3ccccc3)cc2)n1 (centres undefined),"inconclusive: 22.4 µM [inhibitor, partial curve, poor fit]",
Cc1ccc(N2CC(=O)N(CC(=O)O)C2=O)cc1,"inconclusive: 0.562 µM [activator, full curve]",
COc1ccc(N2CC(O)=C(c3nc(-c4ccc(Br)cc4)cs3)C2=N)cc1,"inconclusive: 0.355 µM [activator, full curve, poor fit]",
COc1ccccc1N(CN1C(=O)c2ccccc2C1=O)C(=O)c1cccc(C)c1,"inconclusive: 22.4 µM [inhibitor, single point]",
O=c1c([N+](=O)[O-])c(NCCN2CCCCCC2)c2ccccc2n1-c1ccccc1,inactive,
O=C(NCc1ccco1)[C@@H]1CCCN1C(=O)c1cccs1,"inconclusive: 5.62 µM [activator, single point]",
O=C(NNC(=S)Nc1ccc(F)c(Cl)c1)c1ccccc1Br,"inconclusive: 17.8 µM [inhibitor, single point]",
Cc1cc(C)c(Cc2c(C)nc3c(C(=O)NCc4ccco4)cnn3c2C)c(C)c1,"inconclusive: 5.62 µM [inhibitor, single point]",
S=c1[nH]nc(-c2ccccc2Cl)n1Cc1ccccc1,inactive,
Cc1ccc(CN2CCN(/N=C/c3cc(Br)cc(Br)c3O)CC2)cc1,inactive,
CNC(=O)/C=C1\NC(C)(C)Cc2ccccc21,"inconclusive: 35.5 µM [inhibitor, single point]",
CC1=C(/C=C/C(C)=C\C=C\C(C)=C\C=C\C=C(C)\C=C\C=C(C)\C=C\C2=C(C)C[C@@H](O)CC2(C)C)C(C)(C)C[C@H](O)C1,inactive,
CN(CC(=O)Nc1cccc2ccccc12)c1ccc(S(=O)(=O)N2CCOCC2)cn1,"inconclusive: 0.631 µM [inhibitor, full curve]",
COc1ccccc1NS(=O)(=O)c1ccc(N/N=C/C=C/c2ccccc2[N+](=O)[O-])c([N+](=O)[O-])c1,"inconclusive: 2.51 µM [activator, full curve, poor fit]",
Cc1csc(NC(=O)C(NC(=O)c2ccccc2F)C(C)C)n1 (centres undefined),"inconclusive: 1.12 µM [activator, full curve, poor fit]",
Cc1cc(C(=O)COC(=O)c2n[nH]c3ccccc23)c(C)n1CC1CCCO1 (centres undefined),inactive,

SMILES,Potency,"activity change, negative = inhibition"
Cc1ccc(C)c(CSc2nc3[nH]ncc3c(=O)[nH]2)c1,inactive,
O=C1C=C(c2ccccc2)C[C@H](c2cccs2)[C@H]1n1nnc([N+](=O)[O-])n1,"inconclusive: 35.5 µM [inhibitor, single point]",
C=C(C)Cn1c(CCn2c3ccccc3c3ccccc32)n[nH]c1=S,inactive,
Cc1cc(C)c(NC(=O)CSc2ccc3nnc(CCNC(=O)c4ccccc4)n3n2)c(C)c1,"inconclusive: 5.62 µM [activator, single point]",
Cn1c(=O)n(C)c2cc(/C=N/NC(N)=S)ccc21,"inconclusive: 35.5 µM [activator, partial curve]",
CCN=C1Cn2c(nc3scc(-c4ccccc4)c3c2=O)CN1CC,"inconclusive: 0.631 µM [inhibitor, partial curve]",
COc1ccc(Nc2nc(Nc3ccc(OC)cc3OC)nc(N3CCN(C)CC3)n2)c(OC)c1,"inconclusive: 11.2 µM [inhibitor, partial curve]",
CCOc1ccccc1N1CCN(C/C=C/c2ccc(N(C)C)cc2)CC1,"inconclusive: 4.47 µM [inhibitor, single point]",
NS(=O)(=O)c1ccc(NC(=S)Nc2ccc(S(=O)(=O)N3CCCC3)cc2)cc1,inactive,
Cc1cc(Cl)ccc1NC(=O)CN1CCC(C(O)(c2ccccc2)c2ccccc2)CC1,"inconclusive: 35.5 µM [inhibitor, single point]",
COc1ccccc1C(CC(=O)c1ccccc1)CC(=O)c1ccccc1,"inconclusive: 11.2 µM [inhibitor, single point]",
CC(C)CCNC(=S)Nc1ccc([N+](=O)[O-])cc1,active: 20 µM,
O=C(O)/C(=C/c1ccco1)NC(=O)c1ccccc1,"inconclusive: 3.16 µM [activator, single point]",
CCOC(=O)c1ccc(-c2c(C(=O)OCC)oc3cc(O)c(CC)cc3c2=O)o1,active: 5.62 µM,
Cc1n[nH]c(=S)n1/N=C/c1ccc(-c2ccccc2[N+](=O)[O-])o1,inactive,
CCn1nc(C)c(CNC(=O)CC2C(=O)NCCN2CC(C)C)c1C (centres undefined),,inactive: 23.8% [at 9.22 µM]
CCCCN(CC)CCCNC(=S)Nc1ccc2nc(N3CCN(C)CC3)cc(C)c2c1,active: 28.2 µM,
Cc1ccc(S(=O)(=O)NNC(=O)C(=O)NNS(=O)(=O)c2ccc(C)cc2)cc1,inactive,
COc1ccc2[nH]c(=O)c(NC(N)=S)nc2c1,inactive,
CC1CCN(c2cc(C#N)c(C#N)cc2[N+](=O)[O-])CC1,inactive,
O=C(O)c1ccc2c(c1)C(=O)N(Cc1ccc3c(c1)OCO3)C2=O,,inactive: 17.8% [at 9.22 µM]
CC1(C)C2CCC1(C)C(NC(=O)/C=C/c1ccccc1)C2 (centres undefined),"inconclusive: 35.5 µM [inhibitor, single point]",
COc1cccc2[nH]c3c(N4CCC(C)CC4)ncnc3c12,"inconclusive: 20 µM [inhibitor, single point]",

# In the list so far, 13 have a carbonyl joined to an NH by a bond outside any ring:
SMILES,Potency,"activity change, negative = inhibition"
O=C(NC1CCCCC1)c1cc(C(=O)c2ccccc2Br)c[nH]1,"inconclusive: 6.31 µM [inhibitor, full curve]",
O=C(NCc1ccco1)[C@@H]1CCCN1C(=O)c1cccs1,"inconclusive: 5.62 µM [activator, single point]",
O=C(NNC(=S)Nc1ccc(F)c(Cl)c1)c1ccccc1Br,"inconclusive: 17.8 µM [inhibitor, single point]",
Cc1cc(C)c(Cc2c(C)nc3c(C(=O)NCc4ccco4)cnn3c2C)c(C)c1,"inconclusive: 5.62 µM [inhibitor, single point]",
CNC(=O)/C=C1\NC(C)(C)Cc2ccccc21,"inconclusive: 35.5 µM [inhibitor, single point]",
CN(CC(=O)Nc1cccc2ccccc12)c1ccc(S(=O)(=O)N2CCOCC2)cn1,"inconclusive: 0.631 µM [inhibitor, full curve]",
Cc1csc(NC(=O)C(NC(=O)c2ccccc2F)C(C)C)n1 (centres undefined),"inconclusive: 1.12 µM [activator, full curve, poor fit]",
Cc1cc(C)c(NC(=O)CSc2ccc3nnc(CCNC(=O)c4ccccc4)n3n2)c(C)c1,"inconclusive: 5.62 µM [activator, single point]",
Cc1cc(Cl)ccc1NC(=O)CN1CCC(C(O)(c2ccccc2)c2ccccc2)CC1,"inconclusive: 35.5 µM [inhibitor, single point]",
O=C(O)/C(=C/c1ccco1)NC(=O)c1ccccc1,"inconclusive: 3.16 µM [activator, single point]",
CCn1nc(C)c(CNC(=O)CC2C(=O)NCCN2CC(C)C)c1C (centres undefined),,inactive: 23.8% [at 9.22 µM]
Cc1ccc(S(=O)(=O)NNC(=O)C(=O)NNS(=O)(=O)c2ccc(C)cc2)cc1,inactive,
CC1(C)C2CCC1(C)C(NC(=O)/C=C/c1ccccc1)C2 (centres undefined),"inconclusive: 35.5 µM [inhibitor, single point]",

# Three compounds from above, ordered by molar mass, descending.
SMILES,Potency,"activity change, negative = inhibition"
NS(=O)(=O)c1ccc(NC(=S)Nc2ccc(S(=O)(=O)N3CCCC3)cc2)cc1,inactive,
O=C1C=C(c2ccccc2)C[C@H](c2cccs2)[C@H]1n1nnc([N+](=O)[O-])n1,"inconclusive: 35.5 µM [inhibitor, single point]",
Cn1c(=O)n(C)c2cc(/C=N/NC(N)=S)ccc21,"inconclusive: 35.5 µM [activator, partial curve]",

# Additional entries:

SMILES,Potency,"activity change, negative = inhibition"
COC(=O)c1ccccc1NC(=O)C(=O)NCC1CCCO1 (centres undefined),inactive,
Cc1c(C(=O)Nc2ccncc2)oc2ccccc12,"inconclusive: 35.5 µM [inhibitor, partial curve]",
O=C(CCl)Nc1ccc(Oc2cnc3ccccc3n2)cc1,"inconclusive: 22.4 µM [inhibitor, single point]",
Cc1ccccc1N1CCN(Cc2c(C#N)c3ccccc3n2C)CC1,"inconclusive: 35.5 µM [inhibitor, single point]",
CCN1C(=O)S/C(=C/c2c(OCc3ccc(C(=O)O)cc3)ccc3ccccc23)C1=O,"inconclusive: 35.5 µM [inhibitor, single point]",
CCCCNC(=O)CSc1nc(CCC)nc2ccccc12,inactive,
O=C(c1cccnc1)N(Cc1ccccc1)c1ccccc1,inactive,
Cn1cnnc1SCC(=O)Nc1ccc2nc(SCc3ccccc3F)sc2c1,"inconclusive: 14.1 µM [inhibitor, partial curve]",
CCN1CCN(CCNC(=O)c2ccc(/C=C3/Sc4ccccc4N(Cc4cccc(Cl)c4)C3=O)cc2)CC1,"inconclusive: 28.2 µM [inhibitor, single point]",
CC(=O)NC(=S)Nc1ccc([N+](=O)[O-])cc1C,"inconclusive: 0.562 µM [activator, full curve, poor fit]",
CCC(C(=O)OCC(=O)Nc1cc(Cl)ccc1Cl)c1ccccc1 (centres undefined),"inconclusive: 3.55 µM [inhibitor, single point]",
COC(=O)c1cc(C(=O)NCc2ccccc2)c(=O)[nH]c1C,inactive,
CCOC(=O)c1ccc(NC(=O)COc2ccc(S(=O)(=O)NC(C)C)cc2)cc1,inactive,
COc1ccc(NS(=O)(=O)c2cc(NC(=O)CNC(=O)c3ccc(C)s3)ccc2Cl)cc1,"inconclusive: 15.8 µM [activator, single point]",
COc1ccccc1Nc1nc(N)nc(CSC(=S)N2CCN(c3ccccc3)CC2)n1,"inconclusive: 1.26 µM [inhibitor, single point]",
CC1=C[C@H]2Cc3cc(C)cc(C)c3S(=O)(=O)[C@@H]2C=C1,"inconclusive: 25.1 µM [inhibitor, single point]",
COc1ccc(CN(C(=O)Cc2c[nH]c3ccccc23)C(C(=O)NC2CCCCC2)c2ccc(C)o2)cc1 (centres undefined),"inconclusive: 25.1 µM [inhibitor, single point]",
O=C(NCc1ccncc1)c1ccc(N2CCCC2)c([N+](=O)[O-])c1,"inconclusive: 10 µM [inhibitor, partial curve]",
Cn1nc(CC(=O)Nc2ccc3c(c2)CCC3)c2ccccc2c1=O,"inconclusive: 1.26 µM [inhibitor, full curve]",
CCC(=O)n1nc(-c2ccccc2)nc1SCC(=O)Nc1ccc(C)cc1,inactive,
CC(=O)Nc1nonc1-c1nc2ccccc2n1CCC(C)C,"inconclusive: 10 µM [inhibitor, partial curve]",
Cc1nc2ccc(S(=O)(=O)NCC(=O)N3CCCC(C)C3)cc2s1 (centres undefined),"inconclusive: 31.6 µM [inhibitor, partial curve]",
COc1cc(CC(=O)Nc2cccc(C(F)(F)F)c2)cc(OC)c1OC,"inconclusive: 10 µM [inhibitor, partial curve]",
